Reference: publication PMC7485977
Results are given in words; binding and its absence hold for the method and conditions named. Binding seen in cells or lysates may run through a third protein. A result given as binding can be weak or reduced; the word gives no strength. Sequences can lack the tags named with a protein.

Tests used:
[1] = molecular target: T1, OsRPN10 fused to a YFP fragment (BiFC) (O. sativa spp. japonica) (UniProt O82143); test: split reporter; BiFC: N- and C-terminal fragments of YFP fused to the two proteins, co-expressed in N. benthamiana leaves by agroinfiltration; confocal microscopy
T1 sequence: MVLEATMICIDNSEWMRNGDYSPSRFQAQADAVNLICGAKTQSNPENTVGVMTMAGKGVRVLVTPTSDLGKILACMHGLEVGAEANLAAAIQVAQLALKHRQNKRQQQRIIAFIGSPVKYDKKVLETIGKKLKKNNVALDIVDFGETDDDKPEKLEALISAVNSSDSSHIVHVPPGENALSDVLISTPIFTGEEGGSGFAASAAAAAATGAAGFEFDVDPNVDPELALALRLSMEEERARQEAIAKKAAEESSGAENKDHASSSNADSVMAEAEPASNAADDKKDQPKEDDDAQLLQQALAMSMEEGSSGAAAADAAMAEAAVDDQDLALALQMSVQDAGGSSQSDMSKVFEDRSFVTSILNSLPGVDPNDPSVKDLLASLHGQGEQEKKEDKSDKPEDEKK

[2] = molecular target: T2, OsRPN10-GFP (O. sativa) (UniProt O82143); test: co-IP; fusion proteins co-expressed 48 h in N. benthamiana leaves by agroinfiltration; total proteins in GTEN buffer (10% glycerol, 25 mM Tris-HCl pH 7.5, 1 mM EDTA, 150 mM NaCl) with 10 mM DTT, 0.5% nonidet P40; GFP-Trap M beads, 2 h; blots with anti-GFP and anti-Myc
T2 sequence: T1 sequence

Row | binding [1] | binding [2] | Substance
1 | binds | – | OsUBL5.1 fused to a YFP fragment (BiFC) (O. sativa spp. japonica)
2 | – | binds | OsUBL5.1-Myc (O. sativa)
